Here are results for 1 compound from patent US6139538A, “Iontophoretic agent delivery to the female reproductive tract” (Iotek, Inc., priority 1997, dated 2000).

For data set [1] the following is noted: 20 minutes.
The nature of the next data set: in vitro. Conditions: pig, uterine wall.

Where “and” joins values, the source holds several entries; their conditions need not be identical. Identical values can stand only once. Like-named read-outs stand apart in the source and are kept apart here.

With `CCN(CC)CC(=O)Nc1c(C)cccc1C` [lidocaine], the μg/g of tissue in data set [1] (Experiment #1, active (A1, A2, A3): 4% lidocaine solution, 1 mA) was 4667.1 µg/g and 3694.6 µg/g; in data set [1] (Experiment #1, passive (P1, P2, P3): 4% lidocaine solution, no current), 801.6 µg/g and 1051.5 µg/g; in data set [1] (Experiment #2, active (A1, A2, A3): 4% lidocaine solution, 1 mA), 9737.7 µg/g and 10318.0 µg/g. The concentration at 20 min in “in vitro” (average of lidocaine/g of tissue, first experiment, active delivery, average of three trials) worked out at 4.47e+06 ng/g; in “in vitro” (average of lidocaine/g of tissue, first experiment, passive delivery, average of three trials) it was 900000 ng/g; in the data set “in vitro” (average of lidocaine/g of tissue, second experiment, active delivery, average of three trials), 1.02e+07 ng/g; in the data set “in vitro” (average of lidocaine/g of tissue, second experiment, passive delivery, average of three trials), 3.51e+06 ng/g; in “in vitro” (μg/g of tissue, Experiment #1, active (A1, A2, A3): 4% lidocaine solution, 1 mA, 20 minutes), 5.05e+06 ng/g; in the data set “in vitro” (μg/g of tissue, Experiment #1, passive (P1, P2, P3): 4% lidocaine solution, no current, 20 minutes), 848000 ng/g. The compound further gave a concentration at 20 min in “in vitro” (μg/g of tissue, Experiment #2, active (A1, A2, A3): 4% lidocaine solution, 1 mA, 20 minutes) of 1.06e+07 ng/g.
